Measured values as given in the supplement of paper PMC7661543.
Differences between knockout arms are mostly noise.

Tested on: MDA-MB-231
Experiment: relative cell number vs DMSO control (72 h) (% of DMSO); higher = less growth inhibition (more cells)
Protocol: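 QMAP-Seq: a pool of 5 breast cancer cell lines (ZR-75-1, SKBR3, HCC-38, MDA-MB-231, BT-20), each carrying 12 doxycycline-inducible Cas9 sgRNA perturbations (11 knockouts plus non-targeting sgNT), was treated with compounds for 72 h at four 10-fold doses (10 nM-10 uM or 1 nM-1 uM range). Barcodes were amplified and sequenced, and cell number was interpolated from 293T spike-in standard curves. The result is expressed as % of the median of DMSO wells. Two biological replicates.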

CCOC(=O)c1ccc(N2NC(=O)C(=Cc3ccc([N+](=O)[O-])o3)C2=O)cc1 [PYR41]
Settings	relative cell number
sgRNA knockout: sgATF3, 10 nM	115
sgRNA knockout: sgATF3, 100 nM	114.8
sgRNA knockout: sgATF3, 1000 nM	108
sgRNA knockout: sgATF3, 10000 nM	84.2
sgRNA knockout: sgATF4, 10 nM	120
sgRNA knockout: sgATF4, 100 nM	66.1
sgRNA knockout: sgATF4, 1000 nM	94.5
sgRNA knockout: sgATF4, 10000 nM	105
sgRNA knockout: sgATF6, 10 nM	119
sgRNA knockout: sgATF6, 100 nM	112
sgRNA knockout: sgATF6, 1000 nM	103
sgRNA knockout: sgATF6, 10000 nM	95.9
sgRNA knockout: sgATG7, 10 nM	103
sgRNA knockout: sgATG7, 100 nM	86.9
sgRNA knockout: sgATG7, 1000 nM	95.9
sgRNA knockout: sgATG7, 10000 nM	91.4
sgRNA knockout: sgERN1, 10 nM	115
sgRNA knockout: sgERN1, 100 nM	102
sgRNA knockout: sgERN1, 1000 nM	94
sgRNA knockout: sgERN1, 10000 nM	103
sgRNA knockout: sgHSF1, 10 nM	109
sgRNA knockout: sgHSF1, 100 nM	93
sgRNA knockout: sgHSF1, 1000 nM	109
sgRNA knockout: sgHSF1, 10000 nM	100
sgRNA knockout: sgHSF2, 10 nM	116
sgRNA knockout: sgHSF2, 100 nM	82.6
sgRNA knockout: sgHSF2, 1000 nM	105
sgRNA knockout: sgHSF2, 10000 nM	114
sgRNA knockout: sgKEAP1, 10 nM	110
sgRNA knockout: sgKEAP1, 100 nM	85.6
sgRNA knockout: sgKEAP1, 1000 nM	116
sgRNA knockout: sgKEAP1, 10000 nM	106
sgRNA knockout: sgNFE2L2, 10 nM	100
sgRNA knockout: sgNFE2L2, 100 nM	103
sgRNA knockout: sgNFE2L2, 1000 nM	115
sgRNA knockout: sgNFE2L2, 10000 nM	89.7
sgRNA knockout: sgSLC35F2, 10 nM	122
sgRNA knockout: sgSLC35F2, 100 nM	103
sgRNA knockout: sgSLC35F2, 1000 nM	110
sgRNA knockout: sgSLC35F2, 10000 nM	88.4
sgRNA knockout: sgXBP1, 10 nM	103
sgRNA knockout: sgXBP1, 100 nM	88.8
sgRNA knockout: sgXBP1, 1000 nM	119
sgRNA knockout: sgXBP1, 10000 nM	67.3

O=C(CCc1ccc(O)cc1)c1c(O)cc(O)cc1O [Phloretin]
Settings	relative cell number
sgRNA knockout: sgATF3, 10 nM	88.5
sgRNA knockout: sgATF3, 100 nM	112.94
sgRNA knockout: sgATF3, 1000 nM	125
sgRNA knockout: sgATF3, 10000 nM	105
sgRNA knockout: sgATF4, 10 nM	112
sgRNA knockout: sgATF4, 100 nM	140.8
sgRNA knockout: sgATF4, 1000 nM	125
sgRNA knockout: sgATF4, 10000 nM	143
sgRNA knockout: sgATF6, 10 nM	86.9
sgRNA knockout: sgATF6, 100 nM	128
sgRNA knockout: sgATF6, 1000 nM	126
sgRNA knockout: sgATF6, 10000 nM	109
sgRNA knockout: sgATG7, 10 nM	97.6
sgRNA knockout: sgATG7, 100 nM	94.7
sgRNA knockout: sgATG7, 1000 nM	118
sgRNA knockout: sgATG7, 10000 nM	102
sgRNA knockout: sgERN1, 10 nM	129.2
sgRNA knockout: sgERN1, 100 nM	94.8
sgRNA knockout: sgERN1, 1000 nM	121
sgRNA knockout: sgERN1, 10000 nM	115
sgRNA knockout: sgHSF1, 10 nM	94.5
sgRNA knockout: sgHSF1, 100 nM	111.7
sgRNA knockout: sgHSF1, 1000 nM	92.3
sgRNA knockout: sgHSF1, 10000 nM	86
sgRNA knockout: sgHSF2, 10 nM	98.9
sgRNA knockout: sgHSF2, 100 nM	90.8
sgRNA knockout: sgHSF2, 1000 nM	97.4
sgRNA knockout: sgHSF2, 10000 nM	102
sgRNA knockout: sgKEAP1, 10 nM	110
sgRNA knockout: sgKEAP1, 100 nM	97.1
sgRNA knockout: sgKEAP1, 1000 nM	116
sgRNA knockout: sgKEAP1, 10000 nM	112
sgRNA knockout: sgNFE2L2, 10 nM	90.2
sgRNA knockout: sgNFE2L2, 100 nM	83.54
sgRNA knockout: sgNFE2L2, 1000 nM	110
sgRNA knockout: sgNFE2L2, 10000 nM	100
sgRNA knockout: sgSLC35F2, 10 nM	77.4
sgRNA knockout: sgSLC35F2, 100 nM	92.8
sgRNA knockout: sgSLC35F2, 1000 nM	125
sgRNA knockout: sgSLC35F2, 10000 nM	115
sgRNA knockout: sgXBP1, 10 nM	100
sgRNA knockout: sgXBP1, 100 nM	113
sgRNA knockout: sgXBP1, 1000 nM	106
sgRNA knockout: sgXBP1, 10000 nM	123
